Data reported in doi:10.1101/2020.04.20.050120.
No constants are given. Whether binding was seen depends on the method and setting. Binding seen in cells or lysates may run through a third protein. Some results given as binding are weak or reduced against the parent protein; the word gives no strength.

The chains behind the UniProt entries cited, without tags or fusion partners.
UniProt P08047: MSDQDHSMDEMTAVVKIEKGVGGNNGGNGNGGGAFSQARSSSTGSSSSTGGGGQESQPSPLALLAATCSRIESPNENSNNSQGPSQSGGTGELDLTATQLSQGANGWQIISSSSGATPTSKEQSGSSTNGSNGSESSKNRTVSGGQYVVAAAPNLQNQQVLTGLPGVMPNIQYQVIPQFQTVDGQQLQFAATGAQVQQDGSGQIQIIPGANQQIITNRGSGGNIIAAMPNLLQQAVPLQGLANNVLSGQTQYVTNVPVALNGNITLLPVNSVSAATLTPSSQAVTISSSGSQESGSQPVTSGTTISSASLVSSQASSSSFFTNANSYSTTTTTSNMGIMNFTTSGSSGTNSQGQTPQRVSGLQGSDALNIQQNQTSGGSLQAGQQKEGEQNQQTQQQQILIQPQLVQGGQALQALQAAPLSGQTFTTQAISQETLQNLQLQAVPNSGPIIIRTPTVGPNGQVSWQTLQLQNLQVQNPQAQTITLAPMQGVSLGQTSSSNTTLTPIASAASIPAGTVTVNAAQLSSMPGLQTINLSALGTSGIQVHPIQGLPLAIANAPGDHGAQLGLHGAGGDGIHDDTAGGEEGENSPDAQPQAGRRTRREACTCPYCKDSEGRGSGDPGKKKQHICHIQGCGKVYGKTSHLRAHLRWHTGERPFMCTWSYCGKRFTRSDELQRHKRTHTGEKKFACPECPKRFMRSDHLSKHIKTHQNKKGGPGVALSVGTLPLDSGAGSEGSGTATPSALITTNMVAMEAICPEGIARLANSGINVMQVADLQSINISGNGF
UniProt Q09472: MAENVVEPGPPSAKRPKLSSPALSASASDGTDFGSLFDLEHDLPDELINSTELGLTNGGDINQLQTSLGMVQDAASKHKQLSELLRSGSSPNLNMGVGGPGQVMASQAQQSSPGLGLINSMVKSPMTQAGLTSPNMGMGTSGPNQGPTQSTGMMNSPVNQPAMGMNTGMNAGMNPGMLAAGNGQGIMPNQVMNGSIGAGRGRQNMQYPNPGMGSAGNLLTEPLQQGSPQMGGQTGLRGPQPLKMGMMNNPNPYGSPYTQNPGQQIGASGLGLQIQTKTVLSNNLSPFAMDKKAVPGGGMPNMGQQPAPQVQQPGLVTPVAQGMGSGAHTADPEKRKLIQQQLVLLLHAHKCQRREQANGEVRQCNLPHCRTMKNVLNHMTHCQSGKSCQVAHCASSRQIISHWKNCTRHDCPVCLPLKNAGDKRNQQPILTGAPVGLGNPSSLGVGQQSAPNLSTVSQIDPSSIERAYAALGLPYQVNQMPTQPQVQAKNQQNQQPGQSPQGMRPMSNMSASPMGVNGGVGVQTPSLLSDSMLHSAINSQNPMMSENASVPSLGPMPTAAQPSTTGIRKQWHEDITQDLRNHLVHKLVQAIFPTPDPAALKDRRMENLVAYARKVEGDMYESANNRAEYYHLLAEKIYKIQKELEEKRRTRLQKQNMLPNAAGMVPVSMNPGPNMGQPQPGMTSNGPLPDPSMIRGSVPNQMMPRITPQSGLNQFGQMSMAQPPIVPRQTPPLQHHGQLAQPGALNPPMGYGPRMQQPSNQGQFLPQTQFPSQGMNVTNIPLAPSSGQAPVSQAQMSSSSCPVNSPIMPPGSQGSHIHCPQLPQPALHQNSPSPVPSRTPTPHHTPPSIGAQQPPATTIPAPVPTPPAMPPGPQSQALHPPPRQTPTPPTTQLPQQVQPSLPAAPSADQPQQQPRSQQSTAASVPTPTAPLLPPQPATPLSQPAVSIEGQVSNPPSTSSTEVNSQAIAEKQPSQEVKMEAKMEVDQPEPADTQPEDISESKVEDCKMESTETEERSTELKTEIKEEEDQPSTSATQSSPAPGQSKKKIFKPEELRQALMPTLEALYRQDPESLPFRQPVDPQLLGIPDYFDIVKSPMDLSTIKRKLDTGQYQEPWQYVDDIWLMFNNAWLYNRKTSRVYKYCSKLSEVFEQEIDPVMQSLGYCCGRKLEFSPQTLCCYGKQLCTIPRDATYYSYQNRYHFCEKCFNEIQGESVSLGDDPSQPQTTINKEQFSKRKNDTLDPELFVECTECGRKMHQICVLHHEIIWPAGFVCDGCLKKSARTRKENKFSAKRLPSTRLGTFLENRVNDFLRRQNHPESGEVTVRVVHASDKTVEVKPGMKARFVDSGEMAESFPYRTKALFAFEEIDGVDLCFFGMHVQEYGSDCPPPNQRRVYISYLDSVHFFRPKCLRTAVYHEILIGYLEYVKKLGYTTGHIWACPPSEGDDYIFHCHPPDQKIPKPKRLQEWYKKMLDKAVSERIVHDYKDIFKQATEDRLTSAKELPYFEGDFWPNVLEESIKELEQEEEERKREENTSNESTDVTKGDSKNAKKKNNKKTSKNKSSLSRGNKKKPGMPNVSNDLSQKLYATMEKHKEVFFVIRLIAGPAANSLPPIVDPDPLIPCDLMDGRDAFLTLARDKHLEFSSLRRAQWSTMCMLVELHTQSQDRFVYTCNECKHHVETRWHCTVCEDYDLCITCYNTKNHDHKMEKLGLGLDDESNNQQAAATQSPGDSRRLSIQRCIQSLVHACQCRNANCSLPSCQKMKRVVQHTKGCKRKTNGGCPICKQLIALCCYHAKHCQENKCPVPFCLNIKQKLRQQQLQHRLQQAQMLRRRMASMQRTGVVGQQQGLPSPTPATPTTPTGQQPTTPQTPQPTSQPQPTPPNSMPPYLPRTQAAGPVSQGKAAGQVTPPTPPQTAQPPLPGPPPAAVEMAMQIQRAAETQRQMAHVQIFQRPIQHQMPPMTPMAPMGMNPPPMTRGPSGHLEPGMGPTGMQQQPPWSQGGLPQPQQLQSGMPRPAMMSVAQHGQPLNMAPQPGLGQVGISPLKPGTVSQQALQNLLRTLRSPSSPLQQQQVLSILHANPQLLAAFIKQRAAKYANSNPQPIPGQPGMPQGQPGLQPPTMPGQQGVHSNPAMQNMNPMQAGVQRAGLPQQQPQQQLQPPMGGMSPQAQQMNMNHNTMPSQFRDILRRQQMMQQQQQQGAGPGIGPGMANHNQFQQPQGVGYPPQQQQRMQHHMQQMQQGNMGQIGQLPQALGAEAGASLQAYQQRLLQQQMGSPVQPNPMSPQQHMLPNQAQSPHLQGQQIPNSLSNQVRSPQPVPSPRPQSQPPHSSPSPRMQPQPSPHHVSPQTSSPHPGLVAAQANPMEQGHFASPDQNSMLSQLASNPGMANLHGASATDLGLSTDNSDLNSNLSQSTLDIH
UniProt Q96KQ7: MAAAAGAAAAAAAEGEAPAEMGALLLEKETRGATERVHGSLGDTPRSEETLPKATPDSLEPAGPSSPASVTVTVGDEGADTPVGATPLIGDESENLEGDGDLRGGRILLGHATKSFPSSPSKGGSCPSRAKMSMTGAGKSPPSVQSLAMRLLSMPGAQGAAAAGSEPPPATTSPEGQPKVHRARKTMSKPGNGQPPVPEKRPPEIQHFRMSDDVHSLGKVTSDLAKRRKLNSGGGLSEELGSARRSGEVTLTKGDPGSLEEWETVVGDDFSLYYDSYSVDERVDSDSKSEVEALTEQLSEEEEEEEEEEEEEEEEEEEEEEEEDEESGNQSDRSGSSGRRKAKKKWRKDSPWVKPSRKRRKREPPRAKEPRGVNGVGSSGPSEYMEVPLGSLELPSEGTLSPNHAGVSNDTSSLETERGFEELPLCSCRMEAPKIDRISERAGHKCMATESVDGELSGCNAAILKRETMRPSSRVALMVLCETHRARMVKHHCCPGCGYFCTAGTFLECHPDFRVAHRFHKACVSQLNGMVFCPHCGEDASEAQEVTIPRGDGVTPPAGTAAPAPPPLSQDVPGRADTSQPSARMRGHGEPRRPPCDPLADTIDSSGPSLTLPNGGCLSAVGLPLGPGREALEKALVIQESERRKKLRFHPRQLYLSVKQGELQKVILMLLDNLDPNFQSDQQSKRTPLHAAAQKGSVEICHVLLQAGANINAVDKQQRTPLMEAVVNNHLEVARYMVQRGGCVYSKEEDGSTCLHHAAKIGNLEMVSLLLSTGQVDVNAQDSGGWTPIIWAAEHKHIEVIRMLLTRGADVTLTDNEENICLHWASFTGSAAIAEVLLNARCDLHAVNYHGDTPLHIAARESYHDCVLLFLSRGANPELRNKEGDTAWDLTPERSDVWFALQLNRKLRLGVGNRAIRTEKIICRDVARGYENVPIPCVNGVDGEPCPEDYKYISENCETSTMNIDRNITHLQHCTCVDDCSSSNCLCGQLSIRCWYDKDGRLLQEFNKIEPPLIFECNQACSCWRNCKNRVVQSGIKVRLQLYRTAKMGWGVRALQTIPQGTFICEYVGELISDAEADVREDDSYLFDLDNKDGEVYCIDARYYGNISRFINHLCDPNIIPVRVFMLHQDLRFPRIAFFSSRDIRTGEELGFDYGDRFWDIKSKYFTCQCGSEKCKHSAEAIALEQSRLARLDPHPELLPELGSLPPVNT

How the values were obtained:
[1] = molecular target: Sp1 (human (endogenous in ERMS cell lines)) (UniProt P08047); assay: proximity ligation
[2] = molecular target: p300 (human (endogenous in ERMS cell lines)) (UniProt Q09472); assay: proximity ligation

binding [1]: binds
binding [2]: binds
Substance: G9a (from UniProt Q96KQ7 1-1210) (enzyme)
